Experimental data published in patent publication US12419871B2, “Biomolecules involved in Alzheimer's disease” (ELECTROPHORETICS LIMITED, priority 2015, dated 2025).

Assay: TMTcalibrator quantification of regulated proteins in AD CSF versus control
Parameters: species or system human
Conditions: CSF of AD patient versus control; non-modified peptides of each protein summed for three control and three AD cases

Molecule | Log2 AD/Control
Q8WXD9 (protein, UniProt Q8WXD9 1-1431, looked up, full-length) MGKEQELVQAVKAEDVGTAQRLLQRPRPGKAKLLGSTKKINVNFQDPDGFSALHHAALNGNTELISLLLEAQAAVDIKDNKGMRPLHYAAWQGRKEPMKLVLKAGSAVNIPSDEGHIPLHLAAQHGHYDVSEMLLQHQSNPCMVDNSGKTPLDLACEFGRVGVVQLLLSSNMCAALLEPRPGDATDPNGTSPLHLAAKNGHIDIIRLLLQAGIDINRQTKSGTALHEAALCGKTEVVRLLLDSGINAHVRNTYSQTALDIVHQFTTSQASREIKQLLREASAALQVRATKDYCNNYDLTSLNVKAGDIITVLEQHPDGRWKGCIHDNRTGNDRVGYFPSSLGEAIVKRAGSRAGTEPSLPQGSSSSGPSAPPEEIWVLRKPFAGGDRSGSISGMAGGRGSGGHALHAGSEGVKLLATVLSQKSVSESGPGDSPAKPPEGSAGVARSQPPVAHAGQVYGEQPPKKLEPASEGKSSEAVSQWLTAFQLQLYAPNFISAGYDLPTISRMTPEDLTAIGVTKPGHRKKIAAEISGLSIPDWLPEHKPANLAVWLSMIGLAQYYKVLVDNGYENIDFITDITWEDLQEIGITKLGHQKKLMLAVRKLAELQKAEYAKYEGGPLRRKAPQSLEVMAIESPPPPEPTPADCQSPKMTTFQDSELSDELQAAMTGPAEVGPTTEKPSSHLPPTPRATTRQDSSLGGRARHMSSSQELLGDGPPGPSSPMSRSQEYLLDEGPAPGTPPREARPGRHGHSIKRASVPPVPGKPRQVLPPGTSHFTPPQTPTKTRPGSPQALGGPHGPAPATAKVKPTPQLLPPTERPMSPRSLPQSPTHRGFAYVLPQPVEGEVGPAAPGPAPPPVPTAVPTLCLPPEADAEPGRPKKRAHSLNRYAASDSEPERDELLVPAAAGPYATVQRRVGRSHSVRAPAGADKNVNRSQSFAVRPRKKGPPPPPPKRSSSALASANLADEPVPDAEPEDGLLGVRAQCRRASDLAGSVDTGSAGSVKSIAAMLELSSIGGGGRAARRPPEGHPTPRPASPEPGRVATVLASVKHKEAIGPGGEVVNRRRTLSGPVTGLLATARRGPGESADPGPFVEDGTGRQRPRGPSKGEAGVEGPPLAKVEASATLKRRIRAKQNQQENVKFILTESDTVKRRPKAKEREAGPEPPPPLSVYHNGTGTVRRRPASEQAGPPELPPPPPPAEPPPTDLAHLPPLPPPEGEARKPAKPPVSPKPVLTQPVPKLQGSPTPTSKKVPLPGPGSPEVKRAHGTPPPVSPKPPPPPTAPKPVKAVAGLPSGSAGPSPAPSPARQPPAALAKPPGTPPSLGASPAKPPSPGAPALHVPAKPPRAAAAAAAAAAAPPAPPEGASPGDSARQKLEETSACLAAALQAVEEKIRQEDAQGPRDSAAEKSTGSILDDIGSMFDDLADQLDAMLE | 0.76
P53618 (protein, UniProt P53618 1-953, looked up, full-length) MTAAENVCYTLINVPMDSEPPSEISLKNDLEKGDVKSKTEALKKVIIMILNGEKLPGLLMTIIRFVLPLQDHTIKKLLLVFWEIVPKTTPDGRLLHEMILVCDAYRKDLQHPNEFIRGSTLRFLCKLKEAELLEPLMPAIRACLEHRHSYVRRNAVLAIYTIYRNFEHLIPDAPELIHDFLVNEKDASCKRNAFMMLIHADQDRALDYLSTCIDQVQTFGDILQLVIVELIYKVCHANPSERARFIRCIYNLLQSSSPAVKYEAAGTLVTLSSAPTAIKAAAQCYIDLIIKESDNNVKLIVLDRLIELKEHPAHERVLQDLVMDILRVLSTPDLEVRKKTLQLALDLVSSRNVEELVIVLKKEVIKTNNVSEHEDTDKYRQLLVRTLHSCSVRFPDMAANVIPVLMEFLSDNNEAAAADVLEFVREAIQRFDNLRMLIVEKMLEVFHAIKSVKIYRGALWILGEYCSTKEDIQSVMTEIRRSLGEIPIVESEIKKEAGELKPEEEITVGPVQKLVTEMGTYATQSALSSSRPTKKEEDRPPLRGFLLDGDFFVAASLATTLTKIALRYVALVQEKKKQNSFVAEAMLLMATILHLGKSSLPKKPITDDDVDRISLCLKVLSECSPLMNDIFNKECRQSLSHMLSAKLEEEKLSQKKESEKRNVTVQPDDPISFMQLTAKNEMNCKEDQFQLSLLAAMGNTQRKEAADPLASKLNKVTQLTGFSDPVYAEAYVHVNQYDIVLDVLVVNQTSDTLQNCTLELATLGDLKLVEKPSPLTLAPHDFANIKANVKVASTENGIIFGNIVYDVSGAASDRNCVVLSDIHIDIMDYIQPATCTDAEFRQMWAEFEWENKVTVNTNMVDLNDYLQHILKSTNMKCLTPEKALSGYCGFMAANLYARSIFGEDALANVSIEKPIHQGPDAAVTGHIRIRAKSQGMALSLGDKINLSQKKTSI | 1.07
Q9UPT6 (protein, UniProt Q9UPT6 1-1336, looked up, full-length) MMEIQMDEGGGVVVYQDDYCSGSVMSERVSGLAGSIYREFERLIHCYDEEVVKELMPLVVNVLENLDSVLSENQEHEVELELLREDNEQLLTQYEREKALRRQAEEKFIEFEDALEQEKKELQIQVEHYEFQTRQLELKAKNYADQISRLEERESEMKKEYNALHQRHTEMIQTYVEHIERSKMQQVGGNSQTESSLPGRRKERPTSLNVFPLADGTVRAQIGGKLVPAGDHWHLSDLGQLQSSSSYQCPQDEMSESGQSSAAATPSTTGTKSNTPTSSVPSAAVTPLNESLQPLGDYGVGSKNSKRAREKRDSRNMEVQVTQEMRNVSIGMGSSDEWSDVQDIIDSTPELDMCPETRLDRTGSSPTQGIVNKAFGINTDSLYHELSTAGSEVIGDVDEGADLLGEFSVRDDFFGMGKEVGNLLLENSQLLETKNALNVVKNDLIAKVDQLSGEQEVLRGELEAAKQAKVKLENRIKELEEELKRVKSEAIIARREPKEEAEDVSSYLCTESDKIPMAQRRRFTRVEMARVLMERNQYKERLMELQEAVRWTEMIRASREHPSVQEKKKSTIWQFFSRLFSSSSSPPPAKRPYPSVNIHYKSPTTAGFSQRRNHAMCPISAGSRPLEFFPDDDCTSSARREQKREQYRQVREHVRNDDGRLQACGWSLPAKYKQLSPNGGQEDTRMKNVPVPVYCRPLVEKDPTMKLWCAAGVNLSGWRPNEDDAGNGVKPAPGRDPLTCDREGDGEPKSAHTSPEKKKAKELPEMDATSSRVWILTSTLTTSKVVIIDANQPGTVVDQFTVCNAHVLCISSIPAASDSDYPPGEMFLDSDVNPEDPGADGVLAGITLVGCATRCNVPRSNCSSRGDTPVLDKGQGEVATIANGKVNPSQSTEEATEATEVPDPGPSEPETATLRPGPLTEHVFTDPAPTPSSGPQPGSENGPEPDSSSTRPEPEPSGDPTGAGSSAAPTMWLGAQNGWLYVHSAVANWKKCLHSIKLKDSVLSLVHVKGRVLVALADGTLAIFHRGEDGQWDLSNYHLMDLGHPHHSIRCMAVVYDRVWCGYKNKVHVIQPKTMQIEKSFDAHPRRESQVRQLAWIGDGVWVSIRLDSTLRLYHAHTHQHLQDVDIEPYVSKMLGTGKLGFSFVRITALLVAGSRLWVGTGNGVVISIPLTETVVLHRGQLLGLRANKTSPTSGEGARPGGIIHVYGDDSSDRAASSFIPYCSMAQAQLCFHGHRDAVKFFVSVPGNVLATLNGSVLDSPAEGPGPAAPASEVEGQKLRNVLVLSGGEGYIDFRIGDGEDDETEEGAGDMSQVKPVLSKAERSHIIVWQVSYTPE | −0.85
Q92851 (protein, UniProt Q92851 1-521, looked up, full-length) MKSQGQHWYSSSDKNCKVSFREKLLIIDSNLGVQDVENLKFLCIGLVPNKKLEKSSSASDVFEHLLAEDLLSEEDPFFLAELLYIIRQKKLLQHLNCTKEEVERLLPTRQRVSLFRNLLYELSEGIDSENLKDMIFLLKDSLPKTEMTSLSFLAFLEKQGKIDEDNLTCLEDLCKTVVPKLLRNIEKYKREKAIQIVTPPVDKEAESYQGEEELVSQTDVKTFLEALPQESWQNKHAGSNGNRATNGAPSLVSRGMQGASANTLNSETSTKRAAVYRMNRNHRGLCVIVNNHSFTSLKDRQGTHKDAEILSHVFQWLGFTVHIHNNVTKVEMEMVLQKQKCNPAHADGDCFVFCILTHGRFGAVYSSDEALIPIREIMSHFTALQCPRLAEKPKLFFIQACQGEEIQPSVSIEADALNPEQAPTSLQDSIPAEADFLLGLATVPGYVSFRHVEEGSWYIQSLCNHLKKLVPRMLKFLEKTMEIRGRKRTVWGAKQISATSLPTAISAQTPRPPMRRWSSVS | 1.21
Q99674 (protein, UniProt Q99674 1-318, looked up, full-length) MLPLTMTVLILLLLPTGQAAPKDGVTRPDSEVQHQLLPNPFQPGQEQLGLLQSYLKGLGRTEVQLEHLSREQVLLYLFALHDYDQSGQLDGLELLSMLTAALAPGAANSPTTNPVILIVDKVLETQDLNGDGLMTPAELINFPGVALRHVEPGEPLAPSPQEPQAVGRQSLLAKSPLRQETQEAPGPREEAKGQVEARRESLDPVQEPGGQAEADGDVPGPRGEAEGQAEAKGDAPGPRGEAGGQAEAEGDAPGPRGEAGGQAEAEGDAPGPRGEAGGQAEARENGEEAKELPGETLESKNTQNDFEVHIVQVENDEI | 0.86
Q86VU5 (protein, UniProt Q86VU5 1-262, looked up, full-length) MTQPVPRLSVPAALALGSAALGAAFATGLFLGRRCPPWRGRREQCLLPPEDSRLWQYLLSRSMREHPALRSLRLLTLEQPQGDSMMTCEQAQLLANLARLIQAKKALDLGTFTGYSALALALALPADGRVVTCEVDAQPPELGRPLWRQAEAEHKIDLRLKPALETLDELLAAGEAGTFDVAVVDADKENCSAYYERCLQLLRPGGILAVLRVLWRGKVLQPPKGDVAAECVRNLNERIRRDVRVYISLLPLGDGLTLAFKI | 1.06
Q96FZ7 (protein, UniProt Q96FZ7 1-201, looked up, full-length) MGNLFGRKKQSRVTEQDKAILQLKQQRDKLRQYQKRIAQQLERERALARQLLRDGRKERAKLLLKKKRYQEQLLDRTENQISSLEAMVQSIEFTQIEMKVMEGLQFGNECLNKMHQVMSIEEVERILDETQEAVEYQRQIDELLAGSFTQEDEDAILEELSAITQEQIELPEVPSEPLPEKIPENVPVKARPRQAELVAAS | 0.83
Q14019 (protein, UniProt Q14019 1-142, looked up, full-length) MATKIDKEACRAAYNLVRDDGSAVIWVTFKYDGSTIVPGEQGAEYQHFIQQCTDDVRLFAFVRFTTGDAMSKRSKFALITWIGENVSGLQRAKTGTDKTLVKEVVQNFAKEFVISDRKELEEDFIKSELKKAGGANYDAQTE | 0.68
Q8IZR5 (protein, UniProt Q8IZR5 1-234, looked up, full-length) MRSGEELDGFEGEASSTSMISGASSPYQPTTEPVSQRRGLAGLRCDPDYLRGALGRLKVAQVILALIAFICIETIMACSPCEGLYFFEFVSCSAFVVTGVLLIMFSLNLHMRIPQINWNLTDLVNTGLSAFLFFIASIVLAALNHRAGAEIAAVIFGFLATAAYAVNTFLAVQKWRVSVRQQSTNDYIRARTESRDVDSRPEIQRLDTFSYSTNVTVRKKSPTNLLSLNHWQLA | 0.70
